These are yes or no findings as the source states them, for the method shown. In cells and extracts the contact can be indirect. Some results given as binding are weak or reduced against the parent protein; the word gives no strength.
Molecular target: PCNA (human (endogenous in HeLa)) (UniProt P12004)
Assay: proximity ligation; Duolink PLA on fixed cells with antibodies against PCNA and N-WASp or WASp

Protein sequences, listed by entry. Tags and fused reporters are not part of them.
UniProt P12004: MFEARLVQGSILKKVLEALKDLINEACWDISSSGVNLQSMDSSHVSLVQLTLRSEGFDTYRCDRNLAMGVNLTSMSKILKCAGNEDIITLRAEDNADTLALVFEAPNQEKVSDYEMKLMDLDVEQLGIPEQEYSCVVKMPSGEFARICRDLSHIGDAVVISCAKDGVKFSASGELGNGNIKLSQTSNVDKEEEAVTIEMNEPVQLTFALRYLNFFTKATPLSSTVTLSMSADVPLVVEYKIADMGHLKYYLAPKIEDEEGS
UniProt O00401: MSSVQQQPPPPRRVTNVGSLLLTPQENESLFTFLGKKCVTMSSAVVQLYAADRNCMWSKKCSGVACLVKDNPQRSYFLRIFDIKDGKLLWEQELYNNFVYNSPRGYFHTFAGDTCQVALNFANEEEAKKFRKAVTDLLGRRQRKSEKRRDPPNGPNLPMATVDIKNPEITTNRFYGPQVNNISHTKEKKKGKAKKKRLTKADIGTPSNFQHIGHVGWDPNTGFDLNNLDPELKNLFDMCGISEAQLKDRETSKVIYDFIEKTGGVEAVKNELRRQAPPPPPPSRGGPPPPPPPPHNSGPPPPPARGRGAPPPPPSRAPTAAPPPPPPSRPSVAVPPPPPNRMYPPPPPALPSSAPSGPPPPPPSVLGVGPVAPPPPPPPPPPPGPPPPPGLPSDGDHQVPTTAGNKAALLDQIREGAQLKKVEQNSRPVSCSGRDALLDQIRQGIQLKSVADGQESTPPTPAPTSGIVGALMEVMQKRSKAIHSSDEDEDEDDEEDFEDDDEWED
UniProt P42768: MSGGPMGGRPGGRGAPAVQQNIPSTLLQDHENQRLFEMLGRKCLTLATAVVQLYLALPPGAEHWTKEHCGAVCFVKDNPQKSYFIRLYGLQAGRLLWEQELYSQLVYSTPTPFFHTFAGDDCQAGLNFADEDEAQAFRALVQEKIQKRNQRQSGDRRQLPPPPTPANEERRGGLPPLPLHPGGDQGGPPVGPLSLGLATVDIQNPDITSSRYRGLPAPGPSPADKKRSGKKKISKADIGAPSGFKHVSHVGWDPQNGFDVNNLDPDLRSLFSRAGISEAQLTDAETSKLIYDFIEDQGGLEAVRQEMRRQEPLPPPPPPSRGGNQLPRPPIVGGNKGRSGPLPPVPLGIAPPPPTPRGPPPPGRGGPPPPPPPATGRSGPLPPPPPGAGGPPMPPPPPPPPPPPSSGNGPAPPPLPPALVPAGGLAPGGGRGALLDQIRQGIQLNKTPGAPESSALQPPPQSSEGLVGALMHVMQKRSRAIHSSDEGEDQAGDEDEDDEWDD

binding | Substance
binds | N-WASp (from UniProt O00401 1-505)
binds | Wiskott-Aldrich syndrome protein (WASp) (from UniProt P42768 1-502)

From paper PMC10325910
